The results are deposited in PubChem (AID504749; NCATS, 2011).

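A panel of P. falciparum strains inside erythrocytes is exposed to compounds for three days, then a DNA-binding dye reports the amount of parasite DNA. Each compound was titrated across a series from about 0.000037 to 29 µM. The number is the fitted AC50, the concentration giving a half-maximal change in signal; a lower value means higher potency, whether the curve shows a decrease or an increase. Calls follow the curve class and fit quality: every row here is inconclusive, covering signal-raising curves and weak, poorly fitted, partial or highest-dose-only inhibition curves.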

Values are in nM. All entries here are filed as inconclusive. Only part of the assay is shown, chiefly results filed as inconclusive. A potency from a partial, single-point or poor curve is only a rough figure.

compound | setting | fitted potency (nM) | remark
C=CC[N+]1([C@H]2C[C@H]3[C@@H]4CC[C@H]5C[C@H](O)[C@@H](N6CCOCC6)C[C@]5(C)[C@H]4CC[C@]3(C)[C@H]2OC(C)=O)CCCC1 | CP260 | 8912 | inhibitor, partial curve
C=CC[N+]1([C@H]2C[C@H]3[C@@H]4CC[C@H]5C[C@H](O)[C@@H](N6CCOCC6)C[C@]5(C)[C@H]4CC[C@]3(C)[C@H]2OC(C)=O)CCCC1 | PAD | 11220 | inhibitor, single point
C=CC[N+]1([C@H]2C[C@H]3[C@@H]4CC[C@H]5C[C@H](O)[C@@H](N6CCOCC6)C[C@]5(C)[C@H]4CC[C@]3(C)[C@H]2OC(C)=O)CCCC1 | CP238 | 10000 | inhibitor, single point
C=CC[N+]1([C@H]2C[C@H]3[C@@H]4CC[C@H]5C[C@H](O)[C@@H](N6CCOCC6)C[C@]5(C)[C@H]4CC[C@]3(C)[C@H]2OC(C)=O)CCCC1 | 7G8 | 5012 | inhibitor, partial curve
C=CC[N+]1([C@H]2C[C@H]3[C@@H]4CC[C@H]5C[C@H](O)[C@@H](N6CCOCC6)C[C@]5(C)[C@H]4CC[C@]3(C)[C@H]2OC(C)=O)CCCC1 | ATS189 | 10000 | inhibitor, single point
C=CC[N+]1([C@H]2C[C@H]3[C@@H]4CC[C@H]5C[C@H](O)[C@@H](N6CCOCC6)C[C@]5(C)[C@H]4CC[C@]3(C)[C@H]2OC(C)=O)CCCC1 | CP291 | 21331 | inhibitor, single point
C=CC[N+]1([C@H]2C[C@H]3[C@@H]4CC[C@H]5C[C@H](O)[C@@H](N6CCOCC6)C[C@]5(C)[C@H]4CC[C@]3(C)[C@H]2OC(C)=O)CCCC1 | CP265 | 17782 | inhibitor, single point
C=CC[N+]1([C@H]2C[C@H]3[C@@H]4CC[C@H]5C[C@H](O)[C@@H](N6CCOCC6)C[C@]5(C)[C@H]4CC[C@]3(C)[C@H]2OC(C)=O)CCCC1 | ECU | 17782 | inhibitor, single point
C=CC[N+]1([C@H]2C[C@H]3[C@@H]4CC[C@H]5C[C@H](O)[C@@H](N6CCOCC6)C[C@]5(C)[C@H]4CC[C@]3(C)[C@H]2OC(C)=O)CCCC1 | SC27B | 12589 | inhibitor, single point
C=CC[N+]1([C@H]2C[C@H]3[C@@H]4CC[C@H]5C[C@H](O)[C@@H](N6CCOCC6)C[C@]5(C)[C@H]4CC[C@]3(C)[C@H]2OC(C)=O)CCCC1 | CP305 | 10690 | inhibitor, single point
C=CC[N+]1([C@H]2C[C@H]3[C@@H]4CC[C@H]5C[C@H](O)[C@@H](N6CCOCC6)C[C@]5(C)[C@H]4CC[C@]3(C)[C@H]2OC(C)=O)CCCC1 | CP250 | 7943 | inhibitor, partial curve
C=CC[N+]1([C@H]2C[C@H]3[C@@H]4CC[C@H]5C[C@H](O)[C@@H](N6CCOCC6)C[C@]5(C)[C@H]4CC[C@]3(C)[C@H]2OC(C)=O)CCCC1 | CP237 | 10000 | inhibitor, single point
C=CC[N+]1([C@H]2C[C@H]3[C@@H]4CC[C@H]5C[C@H](O)[C@@H](N6CCOCC6)C[C@]5(C)[C@H]4CC[C@]3(C)[C@H]2OC(C)=O)CCCC1 | DFO2036 | 10000 | inhibitor, partial curve
C=CC[N+]1([C@H]2C[C@H]3[C@@H]4CC[C@H]5C[C@H](O)[C@@H](N6CCOCC6)C[C@]5(C)[C@H]4CC[C@]3(C)[C@H]2OC(C)=O)CCCC1 | CP217 | 11220 | inhibitor, single point
C=CC[N+]1([C@H]2C[C@H]3[C@@H]4CC[C@H]5C[C@H](O)[C@@H](N6CCOCC6)C[C@]5(C)[C@H]4CC[C@]3(C)[C@H]2OC(C)=O)CCCC1 | CP266 | 4256 | inhibitor, partial curve, poor fit
C=CC[N+]1([C@H]2C[C@H]3[C@@H]4CC[C@H]5C[C@H](O)[C@@H](N6CCOCC6)C[C@]5(C)[C@H]4CC[C@]3(C)[C@H]2OC(C)=O)CCCC1 | C2A | 10000 | inhibitor, single point
C=CC[N+]1([C@H]2C[C@H]3[C@@H]4CC[C@H]5C[C@H](O)[C@@H](N6CCOCC6)C[C@]5(C)[C@H]4CC[C@]3(C)[C@H]2OC(C)=O)CCCC1 | ICS | 8912 | inhibitor, partial curve
C=CC[N+]1([C@H]2C[C@H]3[C@@H]4CC[C@H]5C[C@H](O)[C@@H](N6CCOCC6)C[C@]5(C)[C@H]4CC[C@]3(C)[C@H]2OC(C)=O)CCCC1 | CP185 | 5623 | inhibitor, partial curve, poor fit
C=CC[N+]1([C@H]2C[C@H]3[C@@H]4CC[C@H]5C[C@H](O)[C@@H](N6CCOCC6)C[C@]5(C)[C@H]4CC[C@]3(C)[C@H]2OC(C)=O)CCCC1 | CP286 | 8912 | inhibitor, partial curve
C=CC[N+]1([C@H]2C[C@H]3[C@@H]4CC[C@H]5C[C@H](O)[C@@H](N6CCOCC6)C[C@]5(C)[C@H]4CC[C@]3(C)[C@H]2OC(C)=O)CCCC1 | CP247 | 3981 | inhibitor, partial curve
C=CC[N+]1([C@H]2C[C@H]3[C@@H]4CC[C@H]5C[C@H](O)[C@@H](N6CCOCC6)C[C@]5(C)[C@H]4CC[C@]3(C)[C@H]2OC(C)=O)CCCC1 | TAB113 | 11220 | inhibitor, single point
C=CC[N+]1([C@H]2C[C@H]3[C@@H]4CC[C@H]5C[C@H](O)[C@@H](N6CCOCC6)C[C@]5(C)[C@H]4CC[C@]3(C)[C@H]2OC(C)=O)CCCC1 | CP252 | 11220 | inhibitor, single point
C=CC[N+]1([C@H]2C[C@H]3[C@@H]4CC[C@H]5C[C@H](O)[C@@H](N6CCOCC6)C[C@]5(C)[C@H]4CC[C@]3(C)[C@H]2OC(C)=O)CCCC1 | PC26 | 13459 | inhibitor, single point
C=CC[N+]1([C@H]2C[C@H]3[C@@H]4CC[C@H]5C[C@H](O)[C@@H](N6CCOCC6)C[C@]5(C)[C@H]4CC[C@]3(C)[C@H]2OC(C)=O)CCCC1 | CP329 | 16944 | inhibitor, single point
C=CC[N+]1([C@H]2C[C@H]3[C@@H]4CC[C@H]5C[C@H](O)[C@@H](N6CCOCC6)C[C@]5(C)[C@H]4CC[C@]3(C)[C@H]2OC(C)=O)CCCC1 | CP211 | 13459 | inhibitor, partial curve
C=CC[N+]1([C@H]2C[C@H]3[C@@H]4CC[C@H]5C[C@H](O)[C@@H](N6CCOCC6)C[C@]5(C)[C@H]4CC[C@]3(C)[C@H]2OC(C)=O)CCCC1 | CP203 | 13459 | inhibitor, single point
C=CC[N+]1([C@H]2C[C@H]3[C@@H]4CC[C@H]5C[C@H](O)[C@@H](N6CCOCC6)C[C@]5(C)[C@H]4CC[C@]3(C)[C@H]2OC(C)=O)CCCC1 | P93_24 | 10000 | inhibitor, single point
C=CC[N+]1([C@H]2C[C@H]3[C@@H]4CC[C@H]5C[C@H](O)[C@@H](N6CCOCC6)C[C@]5(C)[C@H]4CC[C@]3(C)[C@H]2OC(C)=O)CCCC1 | GB4 | 19011 | inhibitor, partial curve, poor fit
C=CC[N+]1([C@H]2C[C@H]3[C@@H]4CC[C@H]5C[C@H](O)[C@@H](N6CCOCC6)C[C@]5(C)[C@H]4CC[C@]3(C)[C@H]2OC(C)=O)CCCC1 | CP262 | 19011 | inhibitor, single point
Clc1cccc(N2CCNCC2)c1 | CP211 | 19011 | inhibitor, single point
Clc1cccc(N2CCNCC2)c1 | TAB109 | 17782 | inhibitor, single point

Repeated from the top, 2 entries:

| compound | setting | fitted potency (nM) | remark |
|---|---|---|---|
| `C=CC[N+]1([C@H]2C[C@H]3[C@@H]4CC[C@H]5C[C@H](O)[C@@H](N6CCOCC6)C[C@]5(C)[C@H]4CC[C@]3(C)[C@H]2OC(C)=O)CCCC1` | CP260 | 8912 | inhibitor, partial curve |
| `C=CC[N+]1([C@H]2C[C@H]3[C@@H]4CC[C@H]5C[C@H](O)[C@@H](N6CCOCC6)C[C@]5(C)[C@H]4CC[C@]3(C)[C@H]2OC(C)=O)CCCC1` | PAD | 11220 | inhibitor, single point |